According to article doi:10.1101/2021.12.01.470705 (bioRxiv, 2021):
These are yes or no findings as the source states them, for the method shown.

Molecular target: WWOX tandem WW1-WW2 domains (amino acid 16-91) (human) (UniProt Q9NZC7)
Assay: SEC-MALS

binding: no binding
B1: WWOX tandem WW1-WW2 domains (amino acid 16-91) (domain or fragment, UniProt Q9NZC7 16-91)
chain: DELPPGWEERTTKDGWVYYANHTEEKTQWEHPKTGKRKRVAGDLPYGWEQETDENGQVFFVDHINKRTTYLDPRLA
